Laboratory results as given in patent US20250281479A1, “TREATMENT OF CAVERNOUS ANGIOMAS WITH A 4-SUBSTITUTED PIPERIDINE DERIVATIVE” (Neurelis, Inc., priority 2024, published 2025).
At least one compound was matched to its structure with a doubt left.

Tests used:
[1] = system: cryo-injury model; assay: cryo-injury model; assay type: in vivo, mice
[2] = system: Ccm1+/−Msh2+/− model; assay: Ccm1+/−Msh2+/− transgenic mouse model, NRL-1049 in drinking water; assay type: in vivo, mice
[3] = system: Ccm3+/−Trp53−/− mouse model; assay: Ccm3+/−Trp53−/− transgenic mouse model, NRL-1049 in drinking water; assay type: in vivo, mice
[4] = system: transient middle cerebral artery occlusion model; assay: transient middle cerebral artery occlusion model; parameters: species or system mice; settings: mouse

C[C@@H](N)C1CCN(S(=O)(=O)c2cccc3cnccc23)CC1 [NRL-1049]
seizures ([1]; NRL-1049 arm, >60% in vehicle arm): no seizures | edema ([1]; indicative of decreased endothelial leakage): reduced edema | number of mice that have lesions ([2]; 1, 10, and 100 mg/kg/day): dose dependent decrease | lesion reduction, dose dependence ([2]; 1, 10, and 100 mg/kg/day versus placebo, 120 days): dose dependent lesion reduction | large lesions ([2]; all doses): Few large lesions | overall lesion volume ([2]; at high doses): significant decrease | lesion reduction, dose dependence ([3]; 1, 10, and 100 mg/kg versus placebo): dose dependent lesion reduction | lesions versus placebo ([3]; NRL-1049 in drinking water after weaning, 90 days): Fewer lesions | non-heme iron (integrated density per stage 2 lesion) ([3]; all dose concentrations tested): significant decreases | large stage 2 lesions ([3]; all doses): fewer large stage 2 lesions | overall lesion volume (lesional volume/brain volume per mouse) ([3]; at higher dose concentrations): Significant decreases | phosphorylation of p-Cofilin, a marker of ROCK 2 activation in vivo [4]: decreased phosphorylation | intra-infarct hemorrhage ([4]; in vivo): reduction
